Like-named read-outs stand apart in the source and are kept apart here. These are yes or no findings as the source states them, for the method shown. In cells and extracts the contact can be indirect. Some results given as binding are weak or reduced against the parent protein; the word gives no strength.
Assays:
Assay in all cases: co-IP
[1] = biological target: ATPase family AAA domain containing 1 (ATAD1)-HA (human) (UniProt Q8NBU5)
[2] = biological target: ATAD1^E193Q-HA (human) (UniProt Q8NBU5)
[3] = biological target: ATPase family AAA domain containing 1 (ATAD1)-HA (human) (UniProt Q8NBU5); remark: listed apart in the source

Protein sequences, listed by entry. Tags and fused reporters are not part of them. Lines headed by an entry give the natural chain unless they say otherwise; changes in a name come on top.
UniProt Q8NBU5, whole entry: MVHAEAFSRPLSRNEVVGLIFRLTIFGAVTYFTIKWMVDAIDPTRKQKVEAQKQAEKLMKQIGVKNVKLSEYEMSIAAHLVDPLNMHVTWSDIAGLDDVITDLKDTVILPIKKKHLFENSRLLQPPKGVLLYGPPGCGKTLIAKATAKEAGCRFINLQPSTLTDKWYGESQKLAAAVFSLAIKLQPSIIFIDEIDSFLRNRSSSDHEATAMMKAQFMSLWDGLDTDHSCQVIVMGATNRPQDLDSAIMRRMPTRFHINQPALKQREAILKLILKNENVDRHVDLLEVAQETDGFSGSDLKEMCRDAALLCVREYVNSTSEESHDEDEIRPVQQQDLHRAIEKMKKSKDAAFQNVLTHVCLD
UniProt Q15388, whole entry: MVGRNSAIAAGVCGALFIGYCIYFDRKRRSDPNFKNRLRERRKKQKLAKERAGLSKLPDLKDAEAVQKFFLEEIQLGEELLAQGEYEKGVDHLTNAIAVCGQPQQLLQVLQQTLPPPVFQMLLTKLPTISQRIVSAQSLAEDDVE

| binding [1] | binding [2] | binding [3] | Molecule |
| --- | --- | --- | --- |
| binds | binds | binds | TOMM20 (from UniProt Q15388 1-145) |
| – | – | binds | TOMM40 (protein, UniProt O96008 1-361) MGNVLAASSPPAGPPPPPAPALVGLPPPPPSPPGFTLPPLGGSLGAGTSTSRSSERTPGAATASASGAAEDGACGCLPNPGTFEECHRKCKELFPIQMEGVKLTVNKGLSNHFQVNHTVALSTIGESNYHFGVTYVGTKQLSPTEAFPVLVGDMDNSGSLNAQVIHQLGPGLRSKMAIQTQQSKFVNWQVDGEYRGSDFTAAVTLGNPDVLVGSGILVAHYLQSITPCLALGGELVYHRRPGEEGTVMSLAGKYTLNNWLATVTLGQAGMHATYYHKASDQLQVGVEFEASTRMQDTSVSFGYQLDLPKANLLFKGSVDSNWIVGATLEKKLPPLPLTLALGAFLNHRKNKFQCGFGLTIG |
